In the supplement of paper PMC10849652:
This is one part of the list.

Sequences of proteins named here, by UniProt entry; tags and fusion partners are left off. A change or cut given only in a name is not applied to a line headed by its entry.
UniProt Q9P243: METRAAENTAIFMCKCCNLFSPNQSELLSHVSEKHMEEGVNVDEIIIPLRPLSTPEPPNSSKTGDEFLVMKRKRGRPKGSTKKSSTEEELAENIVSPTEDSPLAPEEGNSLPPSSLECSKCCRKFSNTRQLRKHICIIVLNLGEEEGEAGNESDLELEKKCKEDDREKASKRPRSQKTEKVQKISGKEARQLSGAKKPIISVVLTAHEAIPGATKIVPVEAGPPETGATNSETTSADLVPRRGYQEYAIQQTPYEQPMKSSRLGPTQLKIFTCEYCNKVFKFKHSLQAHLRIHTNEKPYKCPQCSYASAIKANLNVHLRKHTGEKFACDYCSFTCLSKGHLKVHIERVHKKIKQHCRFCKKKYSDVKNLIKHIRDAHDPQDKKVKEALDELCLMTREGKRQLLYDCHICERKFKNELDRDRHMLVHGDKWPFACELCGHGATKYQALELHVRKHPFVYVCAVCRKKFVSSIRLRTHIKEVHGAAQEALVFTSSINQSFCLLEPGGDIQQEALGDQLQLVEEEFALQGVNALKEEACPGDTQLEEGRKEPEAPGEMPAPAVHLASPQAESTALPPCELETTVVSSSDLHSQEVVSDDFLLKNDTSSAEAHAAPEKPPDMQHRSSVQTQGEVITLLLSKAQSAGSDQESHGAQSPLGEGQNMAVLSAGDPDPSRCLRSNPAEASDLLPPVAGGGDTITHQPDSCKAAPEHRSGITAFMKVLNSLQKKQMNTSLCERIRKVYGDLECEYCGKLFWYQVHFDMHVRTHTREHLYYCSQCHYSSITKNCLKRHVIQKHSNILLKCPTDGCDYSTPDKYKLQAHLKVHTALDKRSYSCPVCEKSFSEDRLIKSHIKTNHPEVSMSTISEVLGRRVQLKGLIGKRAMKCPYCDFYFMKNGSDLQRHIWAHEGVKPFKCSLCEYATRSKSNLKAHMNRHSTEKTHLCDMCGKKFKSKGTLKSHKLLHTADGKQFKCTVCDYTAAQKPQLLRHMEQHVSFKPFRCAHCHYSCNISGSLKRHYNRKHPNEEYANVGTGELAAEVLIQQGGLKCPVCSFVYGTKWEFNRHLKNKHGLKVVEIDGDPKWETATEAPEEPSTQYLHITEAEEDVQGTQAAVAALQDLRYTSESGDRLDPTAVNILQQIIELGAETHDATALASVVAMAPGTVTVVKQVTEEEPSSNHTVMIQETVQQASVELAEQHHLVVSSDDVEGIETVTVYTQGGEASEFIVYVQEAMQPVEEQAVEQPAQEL
UniProt Q9Y2T7, whole entry, looked up: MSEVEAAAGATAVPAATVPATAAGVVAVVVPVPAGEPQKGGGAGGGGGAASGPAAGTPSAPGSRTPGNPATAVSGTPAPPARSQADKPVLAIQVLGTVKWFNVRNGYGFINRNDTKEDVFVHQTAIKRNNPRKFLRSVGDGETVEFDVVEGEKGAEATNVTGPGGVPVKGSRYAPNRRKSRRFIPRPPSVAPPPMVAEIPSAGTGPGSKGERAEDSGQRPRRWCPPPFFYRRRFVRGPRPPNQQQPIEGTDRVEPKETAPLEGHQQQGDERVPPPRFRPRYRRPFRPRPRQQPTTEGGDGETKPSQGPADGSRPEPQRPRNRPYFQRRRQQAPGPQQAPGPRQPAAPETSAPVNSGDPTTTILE
UniProt Q8IXZ2: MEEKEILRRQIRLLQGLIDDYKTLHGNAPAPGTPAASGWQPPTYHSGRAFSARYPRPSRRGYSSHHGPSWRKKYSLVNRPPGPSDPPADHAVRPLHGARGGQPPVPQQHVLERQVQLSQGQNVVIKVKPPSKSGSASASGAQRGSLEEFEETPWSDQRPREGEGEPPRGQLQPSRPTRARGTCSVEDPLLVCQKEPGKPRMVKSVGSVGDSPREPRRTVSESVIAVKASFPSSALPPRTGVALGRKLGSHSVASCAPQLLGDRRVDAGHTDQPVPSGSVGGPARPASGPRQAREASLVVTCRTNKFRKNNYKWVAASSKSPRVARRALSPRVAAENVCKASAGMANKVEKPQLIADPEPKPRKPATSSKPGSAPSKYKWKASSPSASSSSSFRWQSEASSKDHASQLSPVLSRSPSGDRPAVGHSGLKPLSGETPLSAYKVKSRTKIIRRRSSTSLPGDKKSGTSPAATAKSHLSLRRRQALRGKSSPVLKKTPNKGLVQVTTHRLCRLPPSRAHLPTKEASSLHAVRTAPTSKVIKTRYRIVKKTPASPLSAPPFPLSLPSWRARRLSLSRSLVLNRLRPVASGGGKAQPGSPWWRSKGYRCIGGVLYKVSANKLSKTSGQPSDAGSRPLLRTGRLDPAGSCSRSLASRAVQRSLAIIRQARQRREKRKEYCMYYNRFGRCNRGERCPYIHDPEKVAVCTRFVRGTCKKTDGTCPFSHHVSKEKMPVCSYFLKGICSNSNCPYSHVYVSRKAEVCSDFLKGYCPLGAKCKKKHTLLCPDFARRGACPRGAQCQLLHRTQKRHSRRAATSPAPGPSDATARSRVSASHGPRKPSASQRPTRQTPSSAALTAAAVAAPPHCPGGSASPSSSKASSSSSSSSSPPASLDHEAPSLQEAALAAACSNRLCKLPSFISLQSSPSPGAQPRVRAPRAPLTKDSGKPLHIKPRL
UniProt Q5W0Z9: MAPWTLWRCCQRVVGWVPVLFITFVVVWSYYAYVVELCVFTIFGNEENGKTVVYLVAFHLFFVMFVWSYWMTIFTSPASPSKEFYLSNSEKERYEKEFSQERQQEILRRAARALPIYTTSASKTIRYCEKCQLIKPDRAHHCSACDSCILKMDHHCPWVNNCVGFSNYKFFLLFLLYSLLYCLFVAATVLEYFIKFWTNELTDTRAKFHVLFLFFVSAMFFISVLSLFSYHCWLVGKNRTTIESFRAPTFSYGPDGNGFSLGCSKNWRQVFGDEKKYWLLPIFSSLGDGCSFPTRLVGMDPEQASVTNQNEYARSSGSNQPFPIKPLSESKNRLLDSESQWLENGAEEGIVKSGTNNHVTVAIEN
UniProt C9J5V9: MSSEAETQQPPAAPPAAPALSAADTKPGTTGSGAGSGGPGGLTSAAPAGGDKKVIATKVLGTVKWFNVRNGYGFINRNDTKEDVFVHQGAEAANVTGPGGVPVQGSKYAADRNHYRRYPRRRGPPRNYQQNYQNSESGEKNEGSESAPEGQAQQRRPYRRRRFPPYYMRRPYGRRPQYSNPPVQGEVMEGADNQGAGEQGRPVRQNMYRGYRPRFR
UniProt O43543: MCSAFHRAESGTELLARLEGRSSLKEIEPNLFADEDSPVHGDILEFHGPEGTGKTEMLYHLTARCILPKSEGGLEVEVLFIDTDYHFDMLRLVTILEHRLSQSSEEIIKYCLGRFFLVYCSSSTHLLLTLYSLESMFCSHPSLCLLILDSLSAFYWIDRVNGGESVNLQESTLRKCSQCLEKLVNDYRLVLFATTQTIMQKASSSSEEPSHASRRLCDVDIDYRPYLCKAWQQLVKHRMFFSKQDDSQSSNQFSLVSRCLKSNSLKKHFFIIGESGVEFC
UniProt Q96GR4: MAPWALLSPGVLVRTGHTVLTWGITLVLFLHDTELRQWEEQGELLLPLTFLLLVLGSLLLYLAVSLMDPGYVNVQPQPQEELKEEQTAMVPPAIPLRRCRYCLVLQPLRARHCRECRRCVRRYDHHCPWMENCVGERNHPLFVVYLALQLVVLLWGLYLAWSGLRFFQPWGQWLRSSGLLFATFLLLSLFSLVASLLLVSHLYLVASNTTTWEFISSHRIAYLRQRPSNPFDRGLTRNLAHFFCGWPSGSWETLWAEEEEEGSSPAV
UniProt P17010: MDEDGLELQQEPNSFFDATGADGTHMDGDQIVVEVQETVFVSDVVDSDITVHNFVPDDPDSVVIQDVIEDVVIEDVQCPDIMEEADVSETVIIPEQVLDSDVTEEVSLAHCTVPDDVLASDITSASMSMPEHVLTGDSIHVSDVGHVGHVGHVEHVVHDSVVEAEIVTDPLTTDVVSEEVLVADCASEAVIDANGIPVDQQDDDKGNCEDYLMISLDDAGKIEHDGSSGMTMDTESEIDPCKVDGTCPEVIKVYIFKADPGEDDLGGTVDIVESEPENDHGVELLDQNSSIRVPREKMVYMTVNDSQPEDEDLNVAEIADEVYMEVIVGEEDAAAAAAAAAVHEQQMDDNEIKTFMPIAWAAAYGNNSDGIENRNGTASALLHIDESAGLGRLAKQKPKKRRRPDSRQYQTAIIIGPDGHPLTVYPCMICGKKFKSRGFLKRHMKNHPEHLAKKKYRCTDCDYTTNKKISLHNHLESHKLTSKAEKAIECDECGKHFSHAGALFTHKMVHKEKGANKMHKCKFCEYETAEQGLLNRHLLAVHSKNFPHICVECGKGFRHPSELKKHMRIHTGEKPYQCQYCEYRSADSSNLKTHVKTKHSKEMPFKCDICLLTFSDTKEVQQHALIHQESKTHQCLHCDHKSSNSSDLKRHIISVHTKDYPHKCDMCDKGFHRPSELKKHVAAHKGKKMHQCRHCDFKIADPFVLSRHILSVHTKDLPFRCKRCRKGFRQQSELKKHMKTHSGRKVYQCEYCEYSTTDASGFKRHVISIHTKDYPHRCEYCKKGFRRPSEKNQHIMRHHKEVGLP
UniProt Q9H8U3: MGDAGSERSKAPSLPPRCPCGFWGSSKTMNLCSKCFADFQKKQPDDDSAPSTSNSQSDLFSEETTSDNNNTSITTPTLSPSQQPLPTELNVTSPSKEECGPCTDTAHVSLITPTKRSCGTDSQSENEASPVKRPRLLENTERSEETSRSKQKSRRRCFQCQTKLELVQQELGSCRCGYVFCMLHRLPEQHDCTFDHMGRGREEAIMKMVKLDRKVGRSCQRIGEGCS
UniProt Q8TCF1: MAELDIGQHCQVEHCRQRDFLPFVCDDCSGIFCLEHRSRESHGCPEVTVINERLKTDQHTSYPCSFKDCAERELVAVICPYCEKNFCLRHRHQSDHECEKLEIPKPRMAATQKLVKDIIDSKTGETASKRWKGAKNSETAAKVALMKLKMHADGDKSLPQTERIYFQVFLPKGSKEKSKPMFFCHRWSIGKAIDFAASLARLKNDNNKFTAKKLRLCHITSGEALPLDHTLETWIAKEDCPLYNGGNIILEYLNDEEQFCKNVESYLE
UniProt Q9NQZ6: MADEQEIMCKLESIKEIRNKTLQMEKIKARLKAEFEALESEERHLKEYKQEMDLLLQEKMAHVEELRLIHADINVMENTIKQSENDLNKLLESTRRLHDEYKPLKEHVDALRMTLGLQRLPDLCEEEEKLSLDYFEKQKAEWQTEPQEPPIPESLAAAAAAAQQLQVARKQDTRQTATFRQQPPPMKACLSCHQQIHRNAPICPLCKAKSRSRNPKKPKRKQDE
UniProt Q8NCN2: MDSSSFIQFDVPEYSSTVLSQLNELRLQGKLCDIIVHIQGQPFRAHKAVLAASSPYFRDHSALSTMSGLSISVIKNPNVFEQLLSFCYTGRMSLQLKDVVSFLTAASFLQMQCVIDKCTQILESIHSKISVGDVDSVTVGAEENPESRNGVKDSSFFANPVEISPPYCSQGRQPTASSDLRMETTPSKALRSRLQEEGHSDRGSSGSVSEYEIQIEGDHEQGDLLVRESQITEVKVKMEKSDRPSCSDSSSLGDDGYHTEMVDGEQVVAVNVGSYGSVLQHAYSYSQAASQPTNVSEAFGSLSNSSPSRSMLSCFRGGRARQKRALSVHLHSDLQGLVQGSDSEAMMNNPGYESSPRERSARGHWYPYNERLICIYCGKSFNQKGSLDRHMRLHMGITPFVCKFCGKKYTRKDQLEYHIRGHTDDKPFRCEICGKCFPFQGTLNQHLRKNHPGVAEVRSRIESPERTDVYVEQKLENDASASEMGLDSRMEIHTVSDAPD
UniProt Q6PJT7: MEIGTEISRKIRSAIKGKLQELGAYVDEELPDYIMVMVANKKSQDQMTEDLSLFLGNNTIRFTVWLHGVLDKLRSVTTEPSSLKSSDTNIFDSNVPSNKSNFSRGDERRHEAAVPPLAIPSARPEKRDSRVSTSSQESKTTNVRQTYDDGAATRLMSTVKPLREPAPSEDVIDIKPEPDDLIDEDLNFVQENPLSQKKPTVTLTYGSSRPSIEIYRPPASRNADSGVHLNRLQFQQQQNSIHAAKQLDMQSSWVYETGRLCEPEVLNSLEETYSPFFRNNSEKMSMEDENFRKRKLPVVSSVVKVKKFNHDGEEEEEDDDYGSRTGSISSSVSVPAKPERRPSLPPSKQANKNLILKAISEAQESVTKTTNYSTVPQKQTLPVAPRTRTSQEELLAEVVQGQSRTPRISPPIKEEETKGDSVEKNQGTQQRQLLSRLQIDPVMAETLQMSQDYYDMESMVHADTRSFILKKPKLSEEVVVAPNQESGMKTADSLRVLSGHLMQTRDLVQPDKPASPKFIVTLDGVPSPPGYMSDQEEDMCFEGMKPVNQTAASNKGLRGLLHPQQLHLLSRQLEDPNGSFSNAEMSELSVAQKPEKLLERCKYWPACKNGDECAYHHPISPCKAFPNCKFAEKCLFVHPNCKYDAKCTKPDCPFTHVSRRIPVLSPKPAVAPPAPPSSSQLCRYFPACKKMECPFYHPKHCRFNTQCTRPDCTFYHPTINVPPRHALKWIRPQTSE

Legend:
Assay in all cases: log2 fold change, soluble protein after heating vs DMSO (PISA); higher = thermal stabilisation; K562 lysate, 10 uM; active = over 0.2 and 3.5 SD of the protein, either way, in both replicates (recomputed)
erlotinib = compound: C#Cc1cccc(Nc2ncnc3cc(OCCOC)c(OCCOC)cc23)c1 [erlotinib]
Method in brief: (§1)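 Following dounce homogenisation of K562 pellets in PBS pH 7.4 with 1 mM MgCl2, crude extract at 1 mg/mL protein was incubated for 30 min with 10 μM compound. Aliquots were then heated for 3 min over 48°C-58°C and pooled, NP-40 was added to 0.5% at 4°C, and soluble protein was recovered as the supernatant at 21,000xg for 90 min. Channel-sum-equalised TMTpro 16plex LC-MS/MS quantified this protein. Each value, from duplicates, is a log-two fold change in thermal stability relative to solvent controls.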

[1] = compound: C1=CC(=CC=C1C2=NC3=C(N2)C=C(C=C3)C(=O)N)OC4=CC=C(C=C4)Cl
Method in brief: as §1

[2] = compound: C1CCN(C1)C(=O)NC2=CC=CC(=C2)NC3=NC=C(C(=N3)NCCC4=CN=CN4)Br
Method in brief: as §1

[3] = compound: C1CN(CCC1(CC2=CC=C(C=C2)Cl)N)C3=NC=NC4=C3C=CN4
Method in brief: as §1

[4] = compound: CC(C)C1=C2N=C(C=C(N2N=C1)NCC3=CC=CC=C3)NCCCCCCN
Method in brief: as §1

[5] = compound: CC1=C(C(CC(=O)N1)C2=CC=C(C=C2)C(F)(F)F)C(=O)NC3=C(C=C4C(=C3)C=NN4)F
Method in brief: as §1

[6] = compound: CC1=C(C2=C(C=C1)C(=O)C3=CC=CC=C3N2CCCN)C
Method in brief: as §1

[7] = compound: CC1=C(C=C(C=C1)NC(=O)C2=CC(=CC=C2)C(C)(C)C#N)NC3=CC4=C(C=C3)N=CN(C4=O)C
Method in brief: as §1

[8] = compound: C/C(=N\NC(=O)C1=CC(=CC=C1)S(=O)(=O)N2CCOCC2)/C3=C(C=CC(=C3)Cl)O
Method in brief: as §1

[9] = compound: C1=CC2=C(C=CC(=C2)/C=C\3/C(=O)NC(=NCC4=CC=CS4)S3)N=C1
Method in brief: as §1

[10] = compound: C1=CC=C2C(=C1)C3=NNC4=CC=CC(=C43)C2=O
Method in brief: as §1

[11] = compound: C1=CC=C(C=C1)C2=NC(=C(N2)C3=CC=NC=C3)C4=CC(=C(C=C4)Cl)O
Method in brief: as §1

IRAK-1-4 Inhibitor I = compound: C1COCCN1CCN2C3=CC=CC=C3N=C2NC(=O)C4=CC(=CC=C4)[N+](=O)[O-] [IRAK-1-4 Inhibitor I]
Method in brief: as §1

ralimetinib = compound: CC(C)(C)Cn1c(N)nc2ccc(-c3[nH]c(C(C)(C)C)nc3-c3ccc(F)cc3)nc21 [ralimetinib]
Method in brief: as §1

[12] = compound: CC(C)(O)CC(=O)NCCn1ccc2ncnc(Nc3ccc(Oc4cccc(C(F)(F)F)c4)c(Cl)c3)c21
Method in brief: as §1

[13] = compound: CC1=C(C=C(C=C1)NC(=O)C2=CC(=CC=C2)N(C)C)NC(=O)C3=CC=C(C=C3)O
Method in brief: as §1

[14] = compound: C1=CC2=NC=CN=C2C=C1/C=C/3\C(=O)NC(=O)S3
Method in brief: as §1

ibrutinib = compound: C=CC(=O)N1CCC[C@@H](n2nc(-c3ccc(Oc4ccccc4)cc3)c3c(N)ncnc32)C1 [ibrutinib]
Method in brief: as §1

[15] = compound: CC(=O)c1cnc2ccc(-c3cc(Cl)c(O)c(Cl)c3)nc2c1N[C@H]1CC[C@H](CN(C)C)CC1
Method in brief: as §1

[16] = compound: CC1=CC=C(C=C1)SC2=C3C=C(SC3=CN=C2)C(=O)N
Method in brief: as §1

Measured: log2 fold change

ZFAT (UniProt Q9P243)
inactive: erlotinib 0.077 | [1] 0.1 | [2] -0.216 | [3] -0.072 | [4] -0.08 | [5] -0.02

ZCCHC7 (UniProt Q8N3Z6)
inactive: [5] 0.158 | [6] -0.051 | [7] 0.141

ZCCHC4 (UniProt Q9H5U6)
inactive: [8] -0.096 | [9] 0.171 | [10] -0.024 | [2] -0.162 | [3] 0.107 | [5] 0.039 | [6] 0.059

ZDHHC9 (UniProt Q9Y397)
inactive: erlotinib 0.009 | [1] -0.136 | [11] 0.121 | IRAK-1-4 Inhibitor I -0.071 | ralimetinib -0.066 | [12] -0.158 | [4] -0.222 | [7] 0.101 | [13] 0.101

YIPF2 (UniProt Q9BWQ6)
inactive: erlotinib 0.121 | [1] 0.061 | [11] -0.043 | IRAK-1-4 Inhibitor I 0.115 | ralimetinib -0.061 | [12] -0.051 | [4] -0.084 | [7] -0.007 | [13] 0.044

ZBTB48 (UniProt P10074)
inactive: [8] 0.065 | [9] 0.167 | [10] -0.083 | [6] -0.086

YBX2 (UniProt Q9Y2T7)
inactive: [14] 0.037 | ibrutinib -0.042

ZBED4 (UniProt O75132)
inactive: [8] 0.188 | [9] -0.182 | [10] -0.005

ZFYVE19 isoform 3 (UniProt Q96K21)
inactive: [14] 0.038 | ibrutinib 0.085 | [15] -0.084 | [16] 0.047

ZBTB39 (UniProt O15060)
inactive: [11] -0.086 | IRAK-1-4 Inhibitor I -0.184 | ralimetinib -0.062 | [12] 0.081 | [6] 0.03 | [13] 0.023

ZC3H3 (UniProt Q8IXZ2)
inactive: [15] -0.063 | [16] -0.033

ZDHHC17 (UniProt Q8IUH5)
inactive: [8] 0.197 | [9] 0.011 | [11] -0.082 | [10] -0.247 | [2] -0.066 | [3] -0.027 | IRAK-1-4 Inhibitor I 0.205 | [15] -0.063 | ralimetinib 0.077 | [12] 0.047 | [5] -0.001 | [6] 0.161 | [7] -0.171 | [13] -0.067 | [16] -0.032

Reprinted at random: 2 entries already listed.
ZBTB39 (UniProt O15060)
inactive: [11] -0.086 | IRAK-1-4 Inhibitor I -0.184 | ralimetinib -0.062 | [12] 0.081 | [6] 0.03 | [13] 0.023

ZBED4 (UniProt O75132)
inactive: [8] 0.188 | [9] -0.182 | [10] -0.005

The list continues.

ZDHHC20 (UniProt Q5W0Z9)
inactive: [8] -0.031 | [9] -0.046 | [14] -0.092 | [10] 0.017 | [2] 0.032 | [3] 0.011 | ibrutinib -0.033 | [15] -0.021 | [6] 0.009 | [7] 0.083 | [16] 0.05

YTHDC1 (UniProt Q96MU7)
inactive: [8] 0.155 | [9] -0.239 | [14] -0.003 | [10] 0.039 | [2] -0.101 | [3] -0.086 | ibrutinib -0.019 | [15] 0.068 | [5] 0.2 | [6] 0.164 | [7] 0.107 | [16] -0.028

ZBED6 (UniProt P86452)
inactive: erlotinib -0.149 | [1] 0.05 | [11] -0.003 | IRAK-1-4 Inhibitor I 0.069 | [15] -0.101 | ralimetinib -0.221 | [12] -0.176 | [4] 0.084 | [6] -0.198 | [13] 0.041 | [16] -0.23

ZC3H10 (UniProt Q96K80)
inactive: [14] 0.023 | ibrutinib -0.047 | [6] -0.012 | [7] 0.322

ZFYVE21 isoform 2 (UniProt Q9BQ24)
inactive: [8] 0.218 | [9] -0.064 | [14] -0.021 | [11] 0.094 | [10] 0.084 | [2] 0.049 | [3] 0.074 | IRAK-1-4 Inhibitor I 0.145 | ibrutinib -0.069 | [15] -0.273 | ralimetinib 0.123 | [12] 0.109 | [5] -0.039 | [6] -0.043 | [7] 0.012 | [13] -0.092 | [16] -0.109

YBX1 (UniProt C9J5V9)
inactive: [7] -0.008

XRCC2 (UniProt O43543)
inactive: [14] -0.047 | ibrutinib 0.041 | [5] -0.202 | [6] 0.125 | [7] 0.112

ZBED5 (UniProt Q49AG3)
inactive: erlotinib -0.132 | [1] 0.041 | [4] 0.063 | [6] -0.02

XPOT (UniProt F5GYW6)
inactive: [15] -0.027 | [16] 0.041

ZBTB37 (UniProt Q5TC79)
inactive: [11] -0.012 | IRAK-1-4 Inhibitor I 0.028 | ralimetinib 0.134 | [12] -0.014 | [7] -0.034 | [13] -0.147

ZFP64 isoform 5 (UniProt Q9NTW7)
inactive: [14] -0.211 | [11] -0.004 | [2] -0.033 | [3] 0.011 | IRAK-1-4 Inhibitor I -0.006 | ibrutinib 0.084 | [15] 0.017 | ralimetinib -0.033 | [12] -0.059 | [7] 0.028 | [13] 0.083 | [16] 0.145

ZDHHC12 isoform 3 (UniProt Q96GR4)
inactive: [7] 0.03

ZFP36L2 (UniProt P47974)
inactive: [8] 0.01 | [9] -0.002 | [14] -0.213 | [11] -0.212 | [10] -0.017 | [2] -0.052 | [3] 0.014 | IRAK-1-4 Inhibitor I -0.078 | ibrutinib 0.049 | ralimetinib -0.251 | [12] 0.157 | [5] -0.001 | [6] -0.11 | [7] 0.002 | [13] -0.161

ZFX isoform 3 (UniProt P17010)
inactive: [11] -0.014 | IRAK-1-4 Inhibitor I 0.043 | [15] 0.165 | ralimetinib -0.01 | [12] -0.028 | [6] -0.044 | [7] -0.094 | [13] 0.027 | [16] -0.133

ZCRB1 (UniProt Q8TBF4)
inactive: erlotinib -0.006 | [1] -0.02 | [11] -0.019 | IRAK-1-4 Inhibitor I 0.032 | [15] -0.043 | ralimetinib -0.024 | [12] -0.002 | [4] -0.006 | [5] 0.063 | [6] -0.041 | [7] -0.044 | [13] 0.022 | [16] 0.003

ZFAND3 (UniProt Q9H8U3)
inactive: [8] -0.063 | [9] 0.025 | [14] -0.076 | [11] 0.004 | [10] 0.059 | [2] 0.043 | [3] 0.002 | IRAK-1-4 Inhibitor I 0.013 | ibrutinib -0.098 | [15] 0.092 | ralimetinib 0 | [12] -0.045 | [6] -0.039 | [7] -0.16 | [13] -0.001 | [16] 0.029

ZDHHC14 (UniProt Q8IZN3)
inactive: [8] -0.044 | [9] -0.028 | [11] -0.041 | [10] -0.036 | [2] 0.001 | [3] 0.007 | IRAK-1-4 Inhibitor I 0.065 | [15] 0.01 | ralimetinib 0.037 | [12] -0.16 | [5] -0.001 | [6] 0.025 | [7] -0.035 | [13] 0.161 | [16] -0.021

ZFAND1 (UniProt Q8TCF1)
inactive: [14] 0.171 | [11] 0.066 | [2] 0.004 | [3] 0.079 | IRAK-1-4 Inhibitor I -0.018 | ibrutinib 0.041 | ralimetinib 0.003 | [12] 0.128 | [6] -0.06 | [7] -0.051 | [13] -0.001

XRCC5 (UniProt C9JZ81)
inactive: [15] 0.095 | [5] -0.13 | [16] -0.141

ZC4H2 (UniProt Q9NQZ6)
inactive: [7] 0.182

ZFP92 (UniProt A6NM28)
inactive: [8] 0.024 | [9] -0.142 | [10] -0.052 | [2] -0.023 | [3] 0.125

ZBTB34 (UniProt Q8NCN2)
inactive: [14] -0.214 | [11] -0.066 | IRAK-1-4 Inhibitor I 0.069 | ibrutinib 0.297 | [15] 0.071 | ralimetinib 0.081 | [12] -0.042 | [6] 0.018 | [13] 0.093 | [16] -0.096

ZC3H14 isoform 11 (UniProt Q6PJT7)
inactive: [7] 0.016
